Results are given in words; binding and its absence hold for the method and conditions named. For some of these results: A result given as binding can be weak or reduced; the word gives no strength.
Legend:
[1] = target: human collagen Type VI (Chemicon International) (human); assay: quantitative ELISA, zsig37-FITC at 0.4 to 4 ug/ml on 10 ug plated collagen type VI, luminescence
[2] = target: human collagen Type VI (Chemicon International) (human); assay: quantitative ELISA on plated collagen type VI
[3] = target: complement C1q (Sigma Co.); assay: quantitative ELISA
[4] = target: human collagen Type V (Chemicon International) (human); assay: ELISA on plated matrix protein, 1.8 ug/ml zsig37-FITC, chemiluminescence on film
[5] = target: human collagen Type VI (Chemicon International) (human); assay: as above
fibronectin = assay: as above
[6] = target: human collagen Type IV (Chemicon International) (human); assay: ELISA on plated matrix protein, anti-FITC/biotin, streptavidin/HRP, chemiluminescence on film
vitronectin = assay: as above
[7] = target: complement C1q (Sigma Co.); assay: quantitative ELISA as in Example 13; binding concentration dependent and saturable
[8] = target: human collagen Type VI (Chemicon International) (human); assay: competition ELISA on plated collagen type VI; competitor zsig37-FITC at 0.4 ug/ml

| binding [1] | binding [2] | binding [3] | binding [4] | binding [5] | binding (fibronectin) | binding [7] | binding [8] | Binder | binding [6] | binding (vitronectin) |
| --- | --- | --- | --- | --- | --- | --- | --- | --- | --- | --- |
| binds | binds | binds | binds | binds | binds | binds | – | zsig37-FITC (ligand, FITC label (sites not given), 22-281 is used here; also called FITC labeled zsig37; FITC tagged Zsig37 protein) LVLSRVPHVQGEQQEWEGTEELPSPPDHAERAEEQHEKYRPSQDQGLPASRCLRCCDPGTSMYPATAVPQINITILKGEKGDRGDRGLQGKYGKTGSAGARGHTGPKGQKGSMGAPGERCKSHYAAFSVGRKKPMHSNHYYQTVIFDTEFVNLYDHFNMFTGKFYCYVPGLYFFSLNVHTWNQKETYLHIMKNEEEVVILFAQVGDRSIMQSQSLMLELREQDQVWVRLYKGERENAIFSEELDTYITFSGYLVKHATEP | no binding (tested: 1.8 µg/ml zsig37-FITC) | no binding (tested: 1.8 µg/ml zsig37-FITC) |
| – | – | – | – | – | – | – | binds | zsig37 (unlabeled) (ligand) LVLSRVPHVQGEQQEWEGTEELPSPPDHAERAEEQHEKYRPSQDQGLPASRCLRCCDPGTSMYPATAVPQINITILKGEKGDRGDRGLQGKYGKTGSAGARGHTGPKGQKGSMGAPGERCKSHYAAFSVGRKKPMHSNHYYQTVIFDTEFVNLYDHFNMFTGKFYCYVPGLYFFSLNVHTWNQKETYLHIMKNEEEVVILFAQVGDRSIMQSQSLMLELREQDQVWVRLYKGERENAIFSEELDTYITFSGYLVKHATEP | – | – |
